A short description of this data set: peptide synthesis.

Turning to Gly-Gly-Gly-Gly-Leu-Hydrocodone, for the setting “late stage modification step”, the step yield is reported as 97%.

Consider Boc-Gly-Gly-Gly-Gly-Leu-Hydrocodone, for which the step yield (coupling step) was 37%.

The values are drawn from patent US20090306228A1 (priority 2000, published 2009).
